Source: article PMC12607686
Positions count from the first letter of the chain named. No constants are given. Whether binding was seen depends on the method and setting. Binding seen in cells or lysates may run through a third protein. Some entries that bind do so weakly or less than the wild type. Tags and fused reporters may be left off the sequences shown.

Columns and labels:
[1] = target: T1, 293XL-hTLR9-YFP-flag Y870F (human) (UniProt Q9NR96); experiment: co-IP; 293XL-hTLR9-YFP-flag Wt, Y870F, Y980F cells treated with CpG ODN 15 min (Fig. 6D) or 30 min (Fig. 6E); immunoprecipitated with anti-flag for TLR9, immunoblot anti-Syk, anti-EGFR
T1 sequence: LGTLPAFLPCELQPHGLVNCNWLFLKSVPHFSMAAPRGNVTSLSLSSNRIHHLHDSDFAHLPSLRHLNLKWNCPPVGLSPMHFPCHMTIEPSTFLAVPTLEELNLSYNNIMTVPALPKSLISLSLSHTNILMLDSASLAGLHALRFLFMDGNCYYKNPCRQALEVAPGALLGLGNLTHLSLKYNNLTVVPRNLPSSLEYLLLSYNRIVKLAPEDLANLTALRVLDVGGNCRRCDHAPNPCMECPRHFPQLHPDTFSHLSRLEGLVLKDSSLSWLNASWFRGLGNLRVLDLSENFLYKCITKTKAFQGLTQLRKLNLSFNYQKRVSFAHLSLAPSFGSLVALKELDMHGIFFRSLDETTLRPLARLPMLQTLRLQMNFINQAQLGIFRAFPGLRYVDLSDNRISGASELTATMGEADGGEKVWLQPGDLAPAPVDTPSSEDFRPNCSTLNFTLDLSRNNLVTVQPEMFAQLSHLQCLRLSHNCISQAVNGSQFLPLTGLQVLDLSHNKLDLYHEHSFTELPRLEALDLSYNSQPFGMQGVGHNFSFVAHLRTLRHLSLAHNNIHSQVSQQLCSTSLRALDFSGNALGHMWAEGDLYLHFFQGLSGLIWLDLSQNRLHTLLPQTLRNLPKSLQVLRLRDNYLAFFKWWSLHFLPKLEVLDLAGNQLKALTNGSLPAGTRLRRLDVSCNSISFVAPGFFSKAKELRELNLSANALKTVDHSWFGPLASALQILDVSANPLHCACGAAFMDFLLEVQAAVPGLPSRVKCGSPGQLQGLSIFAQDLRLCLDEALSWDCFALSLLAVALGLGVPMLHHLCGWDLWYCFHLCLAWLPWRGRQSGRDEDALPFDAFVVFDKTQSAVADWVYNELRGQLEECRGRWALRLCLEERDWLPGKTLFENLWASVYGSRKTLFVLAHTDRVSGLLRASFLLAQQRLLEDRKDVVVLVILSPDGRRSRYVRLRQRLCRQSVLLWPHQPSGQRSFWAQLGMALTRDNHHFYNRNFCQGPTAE

[2] = target: T2, 293XL-hTLR9-YFP-flag Y980F (human) (UniProt Q9NR96); experiment: as above
T2 sequence: T1 sequence with F845Y, Y955F

## EGFR (from UniProt P00533 25-1210) (receptor)
[1]
  binding: binds
[2]
  binding: binds
